# The supplement of paper PMC9454738
# Counter-ions that a name gives are not always drawn. ± gives the standard deviation of the averaged measurements. Some of the results follow. Repeats in this data set agree poorly, so a single value says little.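 Test systems: triple-negative MDA-MB-231 breast cancer cells and their brain-metastatic MDA-MB-231BRM derivative, each stably carrying empty vector, full-length GLI1 or truncated tGLI1. Viability after 48 h was read by CellTiter-Blue and expressed against 1% DMSO vehicle. A compound was tGLI1-selective if it lowered viability 20% more in tGLI1 cells than in vector and GLI1 cells.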
# How the values were obtained:
# Experiment in all cases: cell viability relative to vehicle (DMSO) control (fraction); higher = more viable cells (less growth inhibition)
# Conditions in all cases: treatment time 48 h
# MDA-MB-231 GLI1 = tested on: MDA-MB-231 GLI1
# MDA-MB-231 Vector = tested on: MDA-MB-231 Vector
# MDA-MB-231 tGLI1 = tested on: MDA-MB-231 tGLI1
# MDA-MB-231BRM GLI1 = tested on: MDA-MB-231BRM GLI1
# MDA-MB-231BRM Vector = tested on: MDA-MB-231BRM Vector
# MDA-MB-231BRM tGLI1 = tested on: MDA-MB-231BRM tGLI1
Structure (SMILES),cell viability (MDA-MB-231 GLI1; 0.05 µM),cell viability (MDA-MB-231 GLI1; 0.5 µM),cell viability (MDA-MB-231 GLI1; 5 µM),cell viability (MDA-MB-231 Vector; 0.05 µM),cell viability (MDA-MB-231 Vector; 0.5 µM),cell viability (MDA-MB-231 Vector; 5 µM),cell viability (MDA-MB-231 tGLI1; 0.05 µM),cell viability (MDA-MB-231 tGLI1; 0.5 µM),cell viability (MDA-MB-231 tGLI1; 5 µM),cell viability (MDA-MB-231BRM GLI1; 0.05 µM),cell viability (MDA-MB-231BRM GLI1; 0.5 µM),cell viability (MDA-MB-231BRM GLI1; 5 µM),cell viability (MDA-MB-231BRM Vector; 0.05 µM),cell viability (MDA-MB-231BRM Vector; 0.5 µM),cell viability (MDA-MB-231BRM Vector; 5 µM),cell viability (MDA-MB-231BRM tGLI1; 0.05 µM),cell viability (MDA-MB-231BRM tGLI1; 0.5 µM),cell viability (MDA-MB-231BRM tGLI1; 5 µM)
CC(C)(C)c1cnc(CSc2cnc(NC(=O)C3CCNCC3)s2)o1,0.34,0.274,0.195,0.327,0.254,0.193,0.21,0.141,0.131,1.07,1.13,1.03,1.03,1.05,1.01,0.96,0.947,0.952
O=c1[nH]cc(F)c(=O)[nH]1 [Adrucil (Fluorouracil)],1.19,1.02,0.877,1.45,1.19,0.708,0.83,1.15,0.832,1.06,1.04,0.994,1.1,1.02,1.05,1.07,1.04,1.07
CO[C@H]1C[C@@H]2CC[C@@H](C)[C@@](O)(O2)C(=O)C(=O)N2CCCC[C@H]2C(=O)O[C@H]([C@H](C)C[C@@H]2CC[C@@H](O)[C@H](OC)C2)CC(=O)[C@H](C)/C=C(\C)[C@@H](O)[C@@H](OC)C(=O)[C@H](C)C[C@H](C)/C=C/C=C/C=C/1C [Rapamycin (Sirolimus)],0.866 ± 0.04,0.835 ± 0.28,0.606 ± 0.11,0.803 ± 0.1,0.655 ± 0.14,0.583 ± 0.054,0.773 ± 0.079,0.682 ± 0.15,0.591 ± 0.065,0.847 ± 0.016,0.803 ± 0.087,0.75 ± 0.17,0.827 ± 0.018,0.8356 ± 0.0035,0.778 ± 0.19,0.912 ± 0.025,0.795 ± 0.012,0.785 ± 0.12
O=C(Nc1cccnc1)c1cc(-c2ccnc(F)c2)ccc1OCc1ccccc1,2.16,3.04,1.85,1.25,1.2,1.05,1.4,1.47,1.21,0.849,0.755,0.653,0.958,0.723,0.626,1.14,1.07,1.05
C=CC(=O)Nc1cc(Nc2nccc(-c3cn(C)c4ccccc34)n2)c(OC)cc1N(C)CCN(C)C,1.17,1.18,-0.0524,0.864,0.684,-0.00378,1.18,0.985,0.055,0.983,0.793,0.572,0.984,0.832,0.586,1,0.803,0.514
O=S(=O)(c1cccc2cnccc12)N1CCCNCC1 [Fasudil (HA-1077) HCl],1.39,1.28,1.54,1.95,1.35,1.39,1.26,1.36,1.5,1.21,1.22,1.03,1.15,1.1,1.07,1.01,0.67,1.01
O=C1c2ccc(Nc3ccc(F)cc3F)cc2CCc2ccc(OC[C@H](O)CO)cc21 [Skepinone-L],1.52,1.69,0.705,1.46,1.43,0.912,1.34,1.52,0.956,1.08,1,0.973,1.17,1.06,1.02,0.978,1.04,0.949
O=C(CCCCCCC(=O)Nc1ccccc1)NO [Vorinostat (SAHA)],1.33,1.09,0.13,0.855,1.4,-0.337,1.13,1.05,0.0834,0.961,0.95,0.83,1.06,0.95,0.953,1.03,0.995,0.873
"O=C(c1ccc(F)c(F)c1Nc1ccc(I)cc1F)N1CC(O)([C@@H]2CCCCN2)C1 [Cobimetinib (GDC-0973, RG7420)]",1.49,1.65,0.79,0.812,0.622,0.411,0.938,0.779,0.546,0.847,0.877,0.624,0.956,0.824,0.721,1.24,1.21,1.21
COc1cc2ncnc(Nc3ccc(F)c(Cl)c3)c2cc1NC(=O)/C=C/CN1CCCCC1,1.37,1.21,-0.0548,1.25,1,0.0134,1.42,1.19,-0.0604,1.01,0.939,0.921,1.05,0.959,0.892,1.03,1.04,0.83
C[C@@H](CN1CC(=O)NC(=O)C1)N1CC(=O)NC(=O)C1 [Dexrazoxane Hydrochloride],1.06,1.02,1.14,1.17,1.1,1.18,1.08,0.995,0.985,1.03,1.05,0.993,1.09,1.05,1.02,1.08,1.03,1.03
CN1CCC(COc2cnc(-c3cccc(Cn4nc(-c5cccc(C#N)c5)ccc4=O)c3)nc2)CC1,1.3,1.72,1.31,1.47,1.53,1.71,1.31,1.52,1.7,1.06,0.954,0.982,1.01,1.04,1,0.982,1.02,0.968
COc1cc2c(cc1O)CC[C@@H]1[C@@H]2CC[C@]2(C)[C@@H](O)CC[C@@H]12 [2-Methoxyestradiol],0.984,0.508,0.131,1.05,0.195,-0.00976,1.03,0.365,0.00869,1.08,0.908,0.732,1.07,0.992,0.843,1.04,0.99,0.832
Cn1cc(-c2ccc3nnc(C(F)(F)c4ccc5ncccc5c4)n3n2)cn1,1.51,1.5,1.47,1.48,1.24,1.16,1.23,1.54,1.07,0.988,1.03,0.941,0.964,1.05,0.933,1.02,0.932,0.924
Cn1cnc2c(F)c(Nc3ccc(Br)cc3Cl)c(C(=O)NOCCO)cc21 [Selumetinib (AZD6244)],1.01,1.11,0.795,0.894,0.658,0.468,0.777,0.934,0.555,0.941,1.01,0.939,0.974,0.937,0.97,0.927,0.952,0.723
O=C(O)[C@]1(Cc2cccc(Nc3nccs3)n2)CC[C@@H](Oc2cccc(Cl)c2F)CC1,1.21,0.934,0.596,1.25,0.966,0.335,1.27,0.816,0.652,1.06,1.11,1.05,1.1,1.15,1.13,1.12,1.16,1.04
CCN1CCN(Cc2ccc(Nc3ncc(F)c(-c4cc(F)c5nc(C)n(C(C)C)c5c4)n3)nc2)CC1,0.977,0.918,0.163,1.14,0.81,0.231,1.02,0.82,0.152,0.969,0.919,0.82,0.9,1.04,0.846,0.96,0.951,0.762
NC1(c2ccc(-c3nc4ccn5c(=O)[nH]nc5c4cc3-c3ccccc3)cc2)CCC1,1.08,0.986,0.251,0.941,1.03,0.381,0.883,1.06,0.667,0.94,0.972,0.775,0.935,0.926,0.749,0.995,0.933,0.795
Cc1cc(Nc2cc(CN3CCOCC3)c3nc(C)c(Cc4ccc(Cl)cc4F)n3n2)n[nH]1,1.2,0.989,0.621,1.25,0.793,0.461,0.94,0.876,0.511,1.15,1.06,0.733,0.778,0.945,0.775,0.5,1.04,0.705
CC(C)n1nc(-c2cc3cc(O)ccc3[nH]2)c2c(N)ncnc21,1.13,0.717,0.208,0.746,0.667,0.174,0.68,0.481,0.356,1.05,0.988,0.727,0.599,0.797,0.815,0.597,0.928,0.647
COc1cc(Nc2nc3ccccc3nc2NS(=O)(=O)c2ccc(NC(=O)c3ccc(C)c(OC)c3)cc2)cc(OC)c1,1.3,1.14,0.99,1.98,1.18,0.922,1.08,1.17,1.06,1.13,1.06,0.963,1.08,1.09,0.722,1.1,1.13,1.05
CC(C)NC[C@@H](C(=O)N1CCN(c2ncnc3c2[C@H](C)C[C@H]3O)CC1)c1ccc(Cl)cc1,1.26,1.06,0.937,1.26,1.09,0.88,1.26,1.11,1.09,0.989,0.94,1.02,0.957,1.07,0.57,0.99,0.994,1.02
Cn1sc(=O)n(Cc2ccccc2)c1=O,1.13,1.48,0.719,1.44,1.42,0.752,1.29,1.39,0.683,0.934,0.929,0.944,1,1.05,1.06,1,0.961,0.91
Cc1[nH]c(/C=C2\C(=O)Nc3ccc(S(=O)(=O)N(C)c4cccc(Cl)c4)cc32)c(C)c1C(=O)N1CCN(C)CC1,1.45,1.91,1.08,1.59,1.34,0.688,1.29,1.55,0.873,0.889,0.944,0.577,0.994,0.832,0.609,0.961,0.879,0.553
CCc1cnn2c(NCc3ccc[n+]([O-])c3)cc(N3CCCC[C@H]3CCO)nc12,0.161,0.189,0.151,0.273,0.279,0.0766,0.181,0.2,0.249,1.04,1.03,1.05,0.986,0.993,1.01,0.985,0.954,0.95
O=C(COc1ccc(Cl)cc1)NC1CCC(NC(=O)COc2ccc(Cl)cc2)CC1 (stereo not drawn) [ISRIB (trans-isomer)],1.02,1.4,1.07,0.68,0.706,0.713,0.601,0.613,0.67,0.572,0.467,0.438,0.615,0.53,0.468,0.761,0.76,0.762
CCNC(=O)Nc1ccc(-c2nc3c(c(N4CCOC[C@@H]4C)n2)CCN(C2COC2)C3)cc1,1.91,2.22,0.761,1.11,0.836,0.421,1.12,0.775,0.479,0.79,0.706,0.588,0.813,0.711,0.573,1.15,0.901,1.03

# Arranged by count of non-hydrogen atoms (low to high): 3 of the compounds above.
Structure (SMILES),cell viability (MDA-MB-231 GLI1; 0.05 µM),cell viability (MDA-MB-231 GLI1; 0.5 µM),cell viability (MDA-MB-231 GLI1; 5 µM),cell viability (MDA-MB-231 Vector; 0.05 µM),cell viability (MDA-MB-231 Vector; 0.5 µM),cell viability (MDA-MB-231 Vector; 5 µM),cell viability (MDA-MB-231 tGLI1; 0.05 µM),cell viability (MDA-MB-231 tGLI1; 0.5 µM),cell viability (MDA-MB-231 tGLI1; 5 µM),cell viability (MDA-MB-231BRM GLI1; 0.05 µM),cell viability (MDA-MB-231BRM GLI1; 0.5 µM),cell viability (MDA-MB-231BRM GLI1; 5 µM),cell viability (MDA-MB-231BRM Vector; 0.05 µM),cell viability (MDA-MB-231BRM Vector; 0.5 µM),cell viability (MDA-MB-231BRM Vector; 5 µM),cell viability (MDA-MB-231BRM tGLI1; 0.05 µM),cell viability (MDA-MB-231BRM tGLI1; 0.5 µM),cell viability (MDA-MB-231BRM tGLI1; 5 µM)
Cn1cnc2c(F)c(Nc3ccc(Br)cc3Cl)c(C(=O)NOCCO)cc21 [Selumetinib (AZD6244)],1.01,1.11,0.795,0.894,0.658,0.468,0.777,0.934,0.555,0.941,1.01,0.939,0.974,0.937,0.97,0.927,0.952,0.723
"O=C(c1ccc(F)c(F)c1Nc1ccc(I)cc1F)N1CC(O)([C@@H]2CCCCN2)C1 [Cobimetinib (GDC-0973, RG7420)]",1.49,1.65,0.79,0.812,0.622,0.411,0.938,0.779,0.546,0.847,0.877,0.624,0.956,0.824,0.721,1.24,1.21,1.21
CCNC(=O)Nc1ccc(-c2nc3c(c(N4CCOC[C@@H]4C)n2)CCN(C2COC2)C3)cc1,1.91,2.22,0.761,1.11,0.836,0.421,1.12,0.775,0.479,0.79,0.706,0.588,0.813,0.711,0.573,1.15,0.901,1.03
